Test results taken from the supplement of paper PMC4604168 (melanoma cell lines).
The list shows a part of the results. Repeats are few or missing, and single values can be far off.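 The apoptosis fraction was the count of cleaved-PARP antibody-stained nuclei relative to all DNA-stained nuclei, imaged in 1,536-well plates. Screening doses were set so most cells survived, and baseline and induced cleaved-PARP levels vary greatly across cell lines.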

Tests used:
Experiment in all cases: cleaved PARP positive nuclei fraction relative to DMSO control; melanoma cells; higher = more apoptosis
Conditions in all cases: library dose: low library concentration; 72 h
[1] = tested on: WM115
[2] = tested on: WM1716
[3] = tested on: WM1745
[4] = tested on: WM3526
[5] = tested on: WM3619
[6] = tested on: WM451Lu

| Structure (SMILES) | cleaved PARP positive nuclei fraction [1] [%] | cleaved PARP positive nuclei fraction [2] [%] | cleaved PARP positive nuclei fraction [3] [%] | cleaved PARP positive nuclei fraction [4] [%] | cleaved PARP positive nuclei fraction [5] [%] | cleaved PARP positive nuclei fraction [6] [%] |
| --- | --- | --- | --- | --- | --- | --- |
| COc1cc(Nc2ncc(F)c(Nc3ccc4c(n3)NC(=O)C(C)(C)O4)n2)cc(OC)c1OC [Tamatinib] + NCC(=O)Nc1ccc(-n2nc(C(F)(F)F)cc2-c2ccc3c(ccc4ccccc43)c2)cc1 [OSU03012] (first compound 0.4 µM, partner dose 1 µM) | 49.7 | 151 | 124 | 114 | 111 | 477 |
| Cn1c(Nc2ccc(C(F)(F)F)cc2)nc2cc(Oc3ccnc(-c4ncc(C(F)(F)F)[nH]4)c3)ccc21 + COc1ccc(COc2ccc(Cc3cnc(N)nc3N)cc2OC)cc1 [GW2580] (first compound 0.08 µM, partner dose 1 µM) | 204 | 76.8 | 123 | 373 | 124 | 70.1 |
| Cn1nnc2c(C(N)=O)ncn2c1=O [temozolomide] + NC(=O)Nc1cc(-c2cccc(F)c2)sc1C(=O)N[C@H]1CCCNC1 [AZD7762] (first compound 2 µM, partner dose 0.02 µM) | 110 | 90.3 | 92.9 | 123 | 186 | 30.2 |
| C#Cc1cccc(Nc2ncnc3cc(OCCOC)c(OCCOC)cc23)c1 [erlotinib] + Oc1nc(-c2ccc(C(F)(F)F)cc2)nc2c1CSCC2 [XAV939] (first compound 0.8 µM, partner dose 2 µM) | 55 | 112 | 132 | 70.3 | 77.8 | 88.8 |
| OCc1c[nH]c2ccccc12 [Indole-3-carbinol] + COc1cc(Nc2ncc(F)c(Nc3ccc4c(n3)NC(=O)C(C)(C)O4)n2)cc(OC)c1OC [Tamatinib] (first compound 0.8 µM, partner dose 0.4 µM) | 145 | 97.5 | 131 | 107 | 98.8 | 125 |
| O=C(CCCCCCC(=O)Nc1ccccc1)NO [vorinostat] + Cc1cc(N2CCOCC2)cc2[nH]c(-c3c(NC[C@@H](O)c4cccc(Cl)c4)cc[nH]c3=O)nc12 [BMS536924] (first compound 0.08 µM, partner dose 0.2 µM) | 45.5 | 66.8 | 123 | 60.4 | 123 | 37.8 |
| CC(=O)c1c(C)c2cnc(Nc3ccc(N4CCNCC4)cn3)nc2n(C2CCCC2)c1=O [palbociclib] + Cn1nnc2c(C(N)=O)ncn2c1=O [temozolomide] (first compound 0.04 µM, partner dose 2 µM) | 129 | 132 | 99.2 | 114 | 109 | 130 |
| Cn1c(Nc2ccc(C(F)(F)F)cc2)nc2cc(Oc3ccnc(-c4ncc(C(F)(F)F)[nH]4)c3)ccc21 + Nc1cccc2c1CN(C1CCC(=O)NC1=O)C2=O [lenalidomide] (first compound 0.08 µM, partner dose 1 µM) | 516 | 103 | 136 | 327 | 245 | 105 |
| O=C(CCCCCCC(=O)Nc1ccccc1)NO [vorinostat] + O=C(O)C(=O)Nc1sc2c(c1C(=O)O)CCNC2 [TCS401] (first compound 0.08 µM, partner dose 1.66667 µM) | 142 | 220 | 98.3 | 162 | 92.9 | 135 |
| Clc1ccc(Nc2nnc(Cc3ccncc3)c3ccccc23)cc1 [vatalanib] + O=C(Nc1ccccc1)c1cc([N+](=O)[O-])ccc1Cl [GW9662] (first compound 2 µM, partner dose 2 µM) | 97.8 | 232 | 121 | 79.1 | 67.6 | 251 |
| Nc1cccc2c1CN(C1CCC(=O)NC1=O)C2=O (centres undefined) [lenalidomide] + CCCCCCCCCCCC1=C(O)C(=O)C=C(O)C1=O [Embelin] (first compound 1 µM, partner dose 1.2 µM) | 46.1 | 74.7 | 101 | 67.3 | 74.6 | 113 |
| O=C(CCCCCCC(=O)Nc1ccccc1)NO [vorinostat] + OCCn1cc(-c2cnc3nnn(Cc4ccc5ncccc5c4)c3n2)cn1 [PF04217903] (first compound 0.08 µM, partner dose 1 µM) | 65.4 | 244 | 78.2 | 65.7 | 95.3 | 152 |
| Cc1nc(Nc2ncc(C(=O)Nc3c(C)cccc3Cl)s2)cc(N2CCN(CCO)CC2)n1 [dasatanib] + Cn1c(Nc2ccc(C(F)(F)F)cc2)nc2cc(Oc3ccnc(-c4ncc(C(F)(F)F)[nH]4)c3)ccc21 [CHIR265] (first compound 0.004 µM, partner dose 0.08 µM) | 896 | 102 | 142 | 126 | 126 | 675 |
| OCCn1cc(-c2cnc3nnn(Cc4ccc5ncccc5c4)c3n2)cn1 + O=C(O)C(=O)Nc1sc2c(c1C(=O)O)CCNC2 [TCS401] (first compound 1 µM, partner dose 1.66667 µM) | 190 | 106 | 108 | 136 | 90.4 | 166 |
| CC(=O)c1c(C)c2cnc(Nc3ccc(N4CCNCC4)cn3)nc2n(C2CCCC2)c1=O [palbociclib] + CN(NC(=O)CC(=O)NN(C)C(=S)c1ccccc1)C(=S)c1ccccc1 [STA4783] (first compound 0.04 µM, partner dose 0.006 µM) | 170 | 225 | 421 | 93.9 | 639 | 121 |
| Clc1ccc(Nc2nnc(Cc3ccncc3)c3ccccc23)cc1 [vatalanib] + c1cc(-c2cnn3cc(-c4ccc(OCCN5CCCCC5)cc4)cnc23)ccn1 [Dorsomorphin] (first compound 2 µM, partner dose 0.4 µM) | 56.3 | 87.9 | 128 | 71.2 | 77.9 | 407 |
| Cc1nc(Nc2ncc(C(=O)Nc3c(C)cccc3Cl)s2)cc(N2CCN(CCO)CC2)n1 [dasatanib] + CCCCCCCCCCCC1=C(O)C(=O)C=C(O)C1=O [Embelin] (first compound 0.004 µM, partner dose 1.2 µM) | 110 | 84.1 | 158 | 36.7 | 83 | 99.3 |
| Cn1c(Nc2ccc(C(F)(F)F)cc2)nc2cc(Oc3ccnc(-c4ncc(C(F)(F)F)[nH]4)c3)ccc21 + O=C(O)C(=O)Nc1sc2c(c1C(=O)O)CCNC2 [TCS401] (first compound 0.08 µM, partner dose 1.66667 µM) | 890 | 199 | 132 | 151 | 107 | 70.7 |
| C=CCNC1=C2C[C@@H](C)C[C@H](OC)[C@H](O)[C@@H](C)/C=C(\C)[C@H](OC(N)=O)[C@@H](OC)/C=C\C=C(/C)C(=O)NC(=CC1=O)C2=O [Tanespimycin] + C#Cc1cccc(Nc2ncnc3cc(OCCOC)c(OCCOC)cc23)c1 [erlotinib] (first compound 0.002 µM, partner dose 0.8 µM) | 92.8 | 134 | 192 | 81.6 | 155 | 95.1 |
| Cc1nc(Nc2ncc(C(=O)Nc3c(C)cccc3Cl)s2)cc(N2CCN(CCO)CC2)n1 [dasatanib] + COC(=O)c1sccc1S(=O)(=O)Nc1ccc(Nc2ccccc2)cc1OC [GSK0660] (first compound 0.004 µM, partner dose 1 µM) | 108 | 85.8 | 164 | 139 | 82.6 | 94.9 |
| C[C@]1(c2nc3c(C(N)=O)cccc3[nH]2)CCCN1 [Veliparib] + O=C1NC(=O)/C(=C/c2ccc(-c3ccc(F)cc3O)o2)S1 [AS252424] (first compound 1.4 µM, partner dose 1 µM) | 54.8 | 114 | 109 | 72.8 | 92.2 | 132 |
| C=CCNC1=C2C[C@@H](C)C[C@H](OC)[C@H](O)[C@@H](C)/C=C(\C)[C@H](OC(N)=O)[C@@H](OC)/C=C\C=C(/C)C(=O)NC(=CC1=O)C2=O [Tanespimycin] + NCC(=O)Nc1ccc(-n2nc(C(F)(F)F)cc2-c2ccc3c(ccc4ccccc43)c2)cc1 [OSU03012] (first compound 0.002 µM, partner dose 1 µM) | 125 | 43.8 | 90.4 | 122 | 95.6 | 190 |
| C#Cc1cccc(Nc2ncnc3cc(OCCOC)c(OCCOC)cc23)c1 [erlotinib] + Nc1cccc2c1CN(C1CCC(=O)NC1=O)C2=O [lenalidomide] (first compound 0.8 µM, partner dose 1 µM) | 165 | 72.8 | 106 | 79.4 | 106 | 75.4 |
| C=CCn1c(=O)c2cnc(Nc3ccc(N4CCN(C)CC4)cc3)nc2n1-c1cccc(C(C)(C)O)n1 + COc1ccc2c(c1)CCC1C2CCC2(C)C(NCCCCCCN3C(=O)C=CC3=O)CCC12 [U73122] (first compound 0.02 µM, partner dose 0.4 µM) | 85.8 | 54.7 | 233 | 63.4 | 127 | 80.3 |

A stretch from further up:

| Structure (SMILES) | cleaved PARP positive nuclei fraction [1] [%] | cleaved PARP positive nuclei fraction [2] [%] | cleaved PARP positive nuclei fraction [3] [%] | cleaved PARP positive nuclei fraction [4] [%] | cleaved PARP positive nuclei fraction [5] [%] | cleaved PARP positive nuclei fraction [6] [%] |
| --- | --- | --- | --- | --- | --- | --- |
| Clc1ccc(Nc2nnc(Cc3ccncc3)c3ccccc23)cc1 [vatalanib] + O=C(Nc1ccccc1)c1cc([N+](=O)[O-])ccc1Cl [GW9662] (first compound 2 µM, partner dose 2 µM) | 97.8 | 232 | 121 | 79.1 | 67.6 | 251 |
| Nc1cccc2c1CN(C1CCC(=O)NC1=O)C2=O (centres undefined) [lenalidomide] + CCCCCCCCCCCC1=C(O)C(=O)C=C(O)C1=O [Embelin] (first compound 1 µM, partner dose 1.2 µM) | 46.1 | 74.7 | 101 | 67.3 | 74.6 | 113 |
